Results: US20200009149A1
Results are given in words; binding and its absence hold for the method and conditions named. Binding seen in cells or lysates may run through a third protein. Some results given as binding are weak or reduced against the parent protein; the word gives no strength.

Amino acid sequences for entries named in this document (tags omitted). A change or cut given only in a name is not applied to a line headed by its entry.
UniProt P30520: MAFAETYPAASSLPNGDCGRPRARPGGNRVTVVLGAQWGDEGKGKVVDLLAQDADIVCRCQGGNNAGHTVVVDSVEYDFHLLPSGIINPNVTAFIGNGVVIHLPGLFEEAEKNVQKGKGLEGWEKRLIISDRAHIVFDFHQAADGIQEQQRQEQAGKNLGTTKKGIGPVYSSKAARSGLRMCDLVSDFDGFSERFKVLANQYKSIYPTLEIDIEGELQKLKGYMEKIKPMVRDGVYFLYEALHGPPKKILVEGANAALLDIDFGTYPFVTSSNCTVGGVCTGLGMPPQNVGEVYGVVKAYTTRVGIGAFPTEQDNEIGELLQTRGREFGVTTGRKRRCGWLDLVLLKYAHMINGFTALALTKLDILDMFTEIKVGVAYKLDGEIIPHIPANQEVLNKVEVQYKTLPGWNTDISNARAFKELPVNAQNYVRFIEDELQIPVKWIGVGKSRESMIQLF

Biological target: hADSS-myc-flag (pCMV6 hADSS-myc-flag, Origene RC204256) (human) (UniProt P30520)
Experiment: co-immunoprecipitation from transfected HEK 293 cell lysate, IP with KCTD13 antibody, immunoblot with myc antibody

B1: human KCTD13 (expressed from plasmid V82 hKCTD13_IRESPuro in HEK cells) (protein, UniProt Q8WZ19 1-329, looked up)
chain: MSAEASGPAAAAAPSLEAPKPSGLEPGPAAYGLKPLTPNSKYVKLNVGGSLHYTTLRTLTGQDTMLKAMFSGRVEVLTDAGGWVLIDRSGRHFGTILNYLRDGSVPLPESTRELGELLGEARYYLVQGLIEDCQLALQQKRETLSPLCLIPMVTSPREEQQLLASTSKPVVKLLHNRSNNKYSYTSTSDDNLLKNIELFDKLALRFHGRLLFLKDVLGDEICCWSFYGQGRKIAEVCCTSIVYATEKKQTKVEFPEARIFEETLNILIYETPRGPDPALLEATGGAAGAGGAGRGEDEENREHRVRRIHVRRHITHDERPHGQQIVFKD
binding: binds
